# Laboratory results taken from US20030180744A1.
# The chains behind the UniProt entries cited, without tags or fusion partners. Where a name states a change or a piece, a line headed by the entry shows the natural chain unless it says otherwise. A line that says so, or that is headed by a name, gives the form on record, which may keep a tag or linker.
# hKGF receptor present in the PC-3 plasma membrane extracts (P21802, form named): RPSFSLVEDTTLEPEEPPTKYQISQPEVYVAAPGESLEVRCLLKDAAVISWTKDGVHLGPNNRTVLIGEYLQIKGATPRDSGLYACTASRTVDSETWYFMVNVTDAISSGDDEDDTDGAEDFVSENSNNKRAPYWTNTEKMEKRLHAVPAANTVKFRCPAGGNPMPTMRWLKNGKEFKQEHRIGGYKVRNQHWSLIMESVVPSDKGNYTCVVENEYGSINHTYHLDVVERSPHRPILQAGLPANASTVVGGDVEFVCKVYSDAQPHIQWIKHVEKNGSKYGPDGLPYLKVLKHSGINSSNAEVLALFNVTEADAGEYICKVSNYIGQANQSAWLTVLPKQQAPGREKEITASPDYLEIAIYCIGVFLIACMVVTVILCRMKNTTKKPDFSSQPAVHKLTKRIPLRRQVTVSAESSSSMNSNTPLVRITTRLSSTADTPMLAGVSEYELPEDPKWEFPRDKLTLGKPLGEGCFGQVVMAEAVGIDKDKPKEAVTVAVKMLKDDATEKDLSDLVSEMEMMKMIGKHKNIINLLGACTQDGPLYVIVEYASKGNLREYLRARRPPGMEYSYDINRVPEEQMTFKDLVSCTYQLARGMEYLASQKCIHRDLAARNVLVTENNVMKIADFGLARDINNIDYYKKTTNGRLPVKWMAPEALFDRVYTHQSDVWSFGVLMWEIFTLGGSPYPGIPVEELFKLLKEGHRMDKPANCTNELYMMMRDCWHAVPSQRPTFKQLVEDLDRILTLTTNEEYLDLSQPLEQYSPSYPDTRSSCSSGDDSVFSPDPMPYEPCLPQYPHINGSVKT
# Results are given in words; binding and its absence hold for the method and conditions named. Some results given as binding are weak or reduced against the parent protein; the word gives no strength.
# B1: Recombinant human Keratinocyte Growth Factor (hKGF) (ligand, UniProt P21781 32-194, looked up)
# chain: CNDMTPEQMATNVNCSSPERHTRSYDYMEGGDIRVRRLFCRTQWYLRIDKRGKVKGTQEMKNNYNIMEIRTVAVGIVAIKGVESEFYLAMNKEGKLYAKKECNEDCNFKELILENHYNTYASAKWTHNGGEMFVALNQKGIPVRGKKTKKEQKTAHFLPMAIT
# Key:
# [1] = molecular target: hKGF receptor present in the PC-3 plasma membrane extracts (UniProt P21802); test: native gel electrophoretic mobility shift (FIG. 11 legend)
# [2] = molecular target: hKGF receptor present in the PC-3 plasma membrane extracts (UniProt P21802); test: native gel electrophoretic mobility shift; the shift is lost with 100 fold excess of unlabeled hKGF
binder,measurement,setting,value
B1,binding,[1],binds
same,binding,[2],binds
